The substances below were run on HLA-A*24-positive lung cancer (NSCLC) samples (assay: Relative LC-MS quantitation of HLA-A*24 peptide presentation on tumors vs normal tissues). Conditions: FIG. 1C, 1D, 1G legends; A*24.
Design: species or system human

Row | Substance | peptide was also found on (other cancers, not shown)
1 | 25 (RFMDGHITF; listed as Homo sapiens) [compound 25] | prostate cancer, gastric cancer

Same assay, conditions: HLA-A*24 peptides, amendment of Table 10

Row | Substance | Additional Entities (additional tumor types showing over-presentation)
2 | 48 (YYYGNTLVEF; listed as Homo sapiens) [compound 48] | Brain Cancer
3 | 57 (SYSIGIANF; listed as Homo sapiens) [compound 57] | Brain Cancer
4 | 40 (IYNPSMGVSVL; listed as Homo sapiens) [compound 40] | Brain Cancer
5 | 27 (RYPPPVREF; listed as Homo sapiens) [compound 27] | Brain Cancer

Same assay, conditions: HLA-A*24 peptides; over-presented on >5% of measured tumor samples, or presented on >5% with ratio of geometric means tumor vs normal >3

Row | Substance | Other relevant organs/diseases (additional tumor types on which the peptide was found)
6 | 84 (TFDVAPSRLDF; listed as Homo sapiens) [compound 84] | Liver, Prostate
7 | 36 (YYGNTLVEF; listed as Homo sapiens) [compound 36] | Brain, Stomach
8 | 77 (RYLEAGAAGLRW; listed as Homo sapiens) [compound 77] | Stomach, Liver
9 | 82 (FYQGIVQQF; listed as Homo sapiens) [compound 82] | Brain, Liver, Prostate
10 | 85 (PFLQASPHF; listed as Homo sapiens) [compound 85] | Stomach
11 | 160 (SYLQAANAL; listed as Homo sapiens) [compound 160] | Stomach
12 | 42 (VYVTIDENNIL; listed as Homo sapiens) [compound 42] | Kidney, Stomach
13 | 27 (RYPPPVREF; listed as Homo sapiens) [compound 27] | Liver, Prostate
14 | 58 (VYFKPSLTPSGEF; listed as Homo sapiens) [compound 58] | Stomach, Liver
15 | 41 (TYIGQGYII; listed as Homo sapiens) [compound 41] | Brain, Stomach, Liver, Prostate

What follows are substances tested on HLA-A*02-positive lung cancer (NSCLC) samples (assay: Relative LC-MS quantitation of HLA-A*02 peptide presentation on tumors vs normal tissues). Conditions: HLA-A*02 peptides, amendment of Table 9; >5% of measured tumor samples or ratio of geometric means tumor vs normal >3.
Design: species or system human; key to Peptide Presentation (presentation score): very highly over-presented on tumors compared to a panel of normal tissues (+++); highly over-presented on tumors compared to a panel of normal (healthy) tissues (++); over-presented on tumors compared to a panel of normal tissues (+)

Row | Substance | Additional Entities (additional tumor types showing over-presentation)
16 | 17 (TLLQEQGTKTV; listed as Homo sapiens) [compound 17] | SCLC, Esophageal Cancer, Urinary bladder cancer
17 | 9 (ALSGTLSGV; listed as Homo sapiens) [compound 9] | CLL, BRCA, Urinary bladder cancer, Uterine Cancer, AML, NHL
18 | 107 (ALSERAVAV; listed as Homo sapiens) [compound 107] | Esophageal Cancer, Uterine Cancer
19 | 15 (ELDRTPPEV; listed as Homo sapiens) [compound 15] | SCLC, PC, CLL, Esophageal Cancer, Urinary bladder cancer, Uterine Cancer, Gallbladder Cancer, Bile Duct Cancer, AML, NHL
20 | 109 (NLIEVNEEV; listed as Homo sapiens) [compound 109] | CLL, AML
21 | 14 (LIQDRVAEV; listed as Homo sapiens) [compound 14] | Esophageal Cancer, Urinary bladder cancer

Same assay, conditions: HLA-A*02 peptides; over-presented on >5% of measured tumour samples, or presented on >5% with ratio of geometric means tumour vs normal >3

Row | Substance | Other relevant organs/diseases (additional tumour types on which the peptide was found)
22 | 144 (KIFDEILVNA; listed as Homo sapiens) [compound 144] | Stomach, Colon, Rectum, Melanoma, Ovary, Esophagus
23 | 134 (TLWYRAPEV; listed as Homo sapiens) [compound 134] | Stomach, Melanoma, Ovary
24 | 9 (ALSGTLSGV; listed as Homo sapiens) [compound 9] | Brain, Liver, Leukocytes, Melanoma, Ovary, Esophagus
25 | 139 (SLIEDLILL; listed as Homo sapiens) [compound 139] | Kidney, Brain, Colon, Rectum, Liver, Pancreas, Prostate, Melanoma, Ovary, Esophagus
26 | 149 (KLVEFDFLGA; listed as Homo sapiens) [compound 149] | Brain, Stomach, Colon, Rectum, Liver, MCC, Ovary, Esophagus
27 | 129 (GLIEIISNA; listed as Homo sapiens) [compound 129] | Brain, Colon, Rectum, Liver, Ovary, Esophagus
28 | 15 (ELDRTPPEV; listed as Homo sapiens) [compound 15] | Kidney, Brain, Liver, Leukocytes
29 | 155 (ALDENLHQL; listed as Homo sapiens) [compound 155] | Esophagus
30 | 137 (FLVDGSWSV; listed as Homo sapiens) [compound 137] | Stomach, Colon, Rectum, Pancreas, Ovary, Esophagus
31 | 156 (TVAEVIQSV; listed as Homo sapiens) [compound 156] | Pancreas, Breast, Esophagus
32 | 118 (SLHFLILYV; listed as Homo sapiens) [compound 118] | Kidney, Brain, Colon, Rectum, Liver, Melanoma, Ovary
33 | 14 (LIQDRVAEV; listed as Homo sapiens) [compound 14] | Kidney
34 | 151 (AVVEFLTSV; listed as Homo sapiens) [compound 151] | Brain, MCC, Esophagus
35 | 152 (ILQDRLNQV; listed as Homo sapiens) [compound 152] | Colon, Rectum, Liver, Ovary
36 | 127 (ILFPDIIARA; listed as Homo sapiens) [compound 127] | Kidney, Brain, Leukocytes, Esophagus

Same assay, conditions: HLA-A*02 peptides; tumors compared to a panel of normal tissues

Row | Substance | Peptide Presentation (presentation score)
37 | DKC-001 (ALFQRPPLI; listed as Homo sapiens) | +
38 | IVAESLQQV (listed as Homo sapiens) [SEQ ID No. 105] | +
39 | SNRN P20-001 (GLIEIISNA; listed as Homo sapiens) | +
40 | CERC-001 (KLSWDLIYL; listed as Homo sapiens) | +
41 | LIQDRVAEV (listed as Homo sapiens) [SEQ ID No. 14] | +
42 | COL6A3-003 (NLLDLDYEL; listed as Homo sapiens) | +++
43 | TMEM43-001 (KLLSDPNYGV; listed as Homo sapiens) | +
44 | PRPF3-001 (AMGIAPPKV; listed as Homo sapiens) | +
45 | LIFDLGGGTFDV (listed as Homo sapiens) [SEQ ID No. 16] | +
46 | COL6A3-007 (FLYDVVKSL; listed as Homo sapiens) | ++
47 | ADAM8-001 (KLLTEVHAA; listed as Homo sapiens) | ++
48 | RLASYLDKV (listed as Homo sapiens) [SEQ ID No. 133] | +
49 | MCM5-001 (ALSGTLSGV; listed as Homo sapiens) | ++
50 | CCNB2-001 (ILVDWLVQV; listed as Homo sapiens) | +++
51 | FLIPYAIML (listed as Homo sapiens) [SEQ ID No. 2] | +++
52 | TNC-001 (AMTQLLAGV; listed as Homo sapiens) | +
53 | ALVQDLAKA (listed as Homo sapiens) [SEQ ID No. 131] | +

From US10526389B2, “Peptides and combinations of peptides for use in immunotherapy against lung cancer, including NSCLC and other cancers” (Immatics Biotechnologies GmbH, priority 2015, dated 2020)
